Reference: publication PMC10890932
These are yes or no findings as the source states them, for the method shown. In cells and extracts the contact can be indirect. A yes stands for co-enrichment or nearness to the bait. Other partners may have been found. Tags and fused reporters may be left off the sequences shown.

Chains of the proteins cited; added tags and fusions are not shown.
UniProt P09874: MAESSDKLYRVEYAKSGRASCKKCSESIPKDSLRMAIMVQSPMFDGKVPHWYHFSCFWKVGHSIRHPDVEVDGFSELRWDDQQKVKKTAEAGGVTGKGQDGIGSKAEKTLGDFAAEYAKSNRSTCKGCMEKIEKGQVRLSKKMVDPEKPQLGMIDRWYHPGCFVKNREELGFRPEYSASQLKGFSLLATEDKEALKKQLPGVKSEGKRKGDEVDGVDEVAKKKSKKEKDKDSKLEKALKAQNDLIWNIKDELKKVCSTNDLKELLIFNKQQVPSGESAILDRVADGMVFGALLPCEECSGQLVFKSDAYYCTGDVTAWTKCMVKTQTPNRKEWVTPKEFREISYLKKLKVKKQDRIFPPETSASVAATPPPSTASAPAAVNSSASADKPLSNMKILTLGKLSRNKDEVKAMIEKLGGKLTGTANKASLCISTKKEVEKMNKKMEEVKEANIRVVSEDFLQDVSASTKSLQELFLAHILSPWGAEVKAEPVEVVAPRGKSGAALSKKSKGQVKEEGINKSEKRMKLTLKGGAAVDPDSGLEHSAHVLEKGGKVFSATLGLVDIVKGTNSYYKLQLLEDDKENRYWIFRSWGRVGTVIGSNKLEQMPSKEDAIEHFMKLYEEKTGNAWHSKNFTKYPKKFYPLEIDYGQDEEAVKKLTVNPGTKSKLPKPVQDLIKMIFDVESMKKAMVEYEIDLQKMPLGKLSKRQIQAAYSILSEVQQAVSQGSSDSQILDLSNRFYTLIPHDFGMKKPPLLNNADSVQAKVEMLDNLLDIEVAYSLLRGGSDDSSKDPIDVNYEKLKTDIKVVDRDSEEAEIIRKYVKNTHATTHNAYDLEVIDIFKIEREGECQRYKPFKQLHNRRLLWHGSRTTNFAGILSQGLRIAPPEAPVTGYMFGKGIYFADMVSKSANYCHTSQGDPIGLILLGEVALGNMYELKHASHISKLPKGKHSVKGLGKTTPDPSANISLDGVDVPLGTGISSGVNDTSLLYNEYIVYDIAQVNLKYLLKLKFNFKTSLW

Molecular target: T1, TKT-Flag (human) (UniProt P29401)
T1 sequence: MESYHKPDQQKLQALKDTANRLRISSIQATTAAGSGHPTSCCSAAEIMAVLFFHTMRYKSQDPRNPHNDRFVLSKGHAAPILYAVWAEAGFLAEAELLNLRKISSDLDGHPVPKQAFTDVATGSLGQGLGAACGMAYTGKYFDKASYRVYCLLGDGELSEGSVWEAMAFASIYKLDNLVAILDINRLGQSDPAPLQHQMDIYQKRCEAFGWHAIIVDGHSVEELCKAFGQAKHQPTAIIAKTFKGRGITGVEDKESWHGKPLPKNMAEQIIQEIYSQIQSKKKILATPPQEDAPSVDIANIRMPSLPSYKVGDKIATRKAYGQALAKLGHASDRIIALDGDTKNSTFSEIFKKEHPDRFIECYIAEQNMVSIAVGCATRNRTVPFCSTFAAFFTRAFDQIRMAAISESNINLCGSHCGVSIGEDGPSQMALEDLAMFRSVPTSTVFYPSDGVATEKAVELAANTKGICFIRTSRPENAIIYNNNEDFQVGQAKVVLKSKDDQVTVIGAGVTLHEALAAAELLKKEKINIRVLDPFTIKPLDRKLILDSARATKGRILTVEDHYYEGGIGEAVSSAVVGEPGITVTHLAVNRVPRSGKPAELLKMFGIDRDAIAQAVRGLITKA
Assay: affinity purification with mass spectrometry; Hep3B cells stably expressing TKT-Flag; immunoprecipitation with anti-Flag or anti-IgG antibody; SDS-PAGE, Coomassie staining, bands of interest analysed by LC-MS/MS

Poly (ADP-ribose) polymerase 1 (PARP1), endogenous in Hep3B (from UniProt P09874 1-1014) (enzyme)
binding: binds
